These results are taken from PMC6692315.

The chains behind the UniProt entries cited, without tags or fusion partners.
UniProt Q8TEB1: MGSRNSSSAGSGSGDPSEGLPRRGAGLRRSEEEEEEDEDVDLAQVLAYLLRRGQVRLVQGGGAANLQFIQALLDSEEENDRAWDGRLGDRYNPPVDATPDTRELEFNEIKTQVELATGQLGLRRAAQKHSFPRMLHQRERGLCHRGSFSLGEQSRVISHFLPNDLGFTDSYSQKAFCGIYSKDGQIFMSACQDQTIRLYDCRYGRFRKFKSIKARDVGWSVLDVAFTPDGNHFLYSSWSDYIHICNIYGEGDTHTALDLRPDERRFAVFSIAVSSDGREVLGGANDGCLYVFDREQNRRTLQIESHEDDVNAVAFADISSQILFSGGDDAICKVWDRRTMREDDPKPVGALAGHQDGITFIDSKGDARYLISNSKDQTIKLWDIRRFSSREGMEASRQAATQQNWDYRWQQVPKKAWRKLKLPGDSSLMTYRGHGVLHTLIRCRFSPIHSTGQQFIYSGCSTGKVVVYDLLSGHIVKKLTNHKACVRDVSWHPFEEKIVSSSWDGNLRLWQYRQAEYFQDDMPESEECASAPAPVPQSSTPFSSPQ

In assay [1] the target is T1, GFP-WDR-23A (C. elegans WDR-23 isoform A) (C. elegans) (UniProt P90794).
T1 sequence: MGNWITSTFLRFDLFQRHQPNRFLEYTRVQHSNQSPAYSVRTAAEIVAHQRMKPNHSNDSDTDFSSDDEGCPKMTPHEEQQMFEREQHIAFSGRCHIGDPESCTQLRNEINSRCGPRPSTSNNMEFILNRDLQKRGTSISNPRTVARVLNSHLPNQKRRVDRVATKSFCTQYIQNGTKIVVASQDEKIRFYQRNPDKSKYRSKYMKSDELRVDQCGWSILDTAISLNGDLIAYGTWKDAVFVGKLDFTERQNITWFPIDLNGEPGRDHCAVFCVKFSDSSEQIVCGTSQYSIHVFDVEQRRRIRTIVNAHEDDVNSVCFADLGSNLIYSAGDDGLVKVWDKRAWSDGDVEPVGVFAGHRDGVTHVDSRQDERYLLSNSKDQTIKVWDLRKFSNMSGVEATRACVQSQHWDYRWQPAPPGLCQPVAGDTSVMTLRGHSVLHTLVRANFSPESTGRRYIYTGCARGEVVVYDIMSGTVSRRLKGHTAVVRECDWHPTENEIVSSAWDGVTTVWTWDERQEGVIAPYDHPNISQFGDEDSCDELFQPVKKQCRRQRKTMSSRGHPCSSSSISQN
The assay can be described thus: co-IP; GFP-tagged protein immunoprecipitated with GFP trap magnetic agarose beads (Chromotek) from transfected HEK-293T lysate; 0.5% CHAPS buffer (10 mM Tris/Cl pH 7.5, 150 mM NaCl, 0.5 mM EDTA); Western blot.

In assay [2] the target is T2, C. elegans GEN-1-3XFLAG (C. elegans) (UniProt Q22418).
T2 sequence: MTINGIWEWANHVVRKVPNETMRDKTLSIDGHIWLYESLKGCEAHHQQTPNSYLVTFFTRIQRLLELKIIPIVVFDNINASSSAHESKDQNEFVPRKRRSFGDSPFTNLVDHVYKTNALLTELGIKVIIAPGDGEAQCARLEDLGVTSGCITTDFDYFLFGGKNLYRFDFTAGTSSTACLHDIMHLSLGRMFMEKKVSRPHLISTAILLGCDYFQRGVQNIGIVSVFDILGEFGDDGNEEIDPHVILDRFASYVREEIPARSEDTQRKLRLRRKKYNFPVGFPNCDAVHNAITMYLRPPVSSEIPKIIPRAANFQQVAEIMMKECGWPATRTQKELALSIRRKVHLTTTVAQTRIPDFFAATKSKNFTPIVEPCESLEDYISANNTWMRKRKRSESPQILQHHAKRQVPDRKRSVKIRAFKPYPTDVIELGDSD
The assay can be described thus: co-IP; reciprocal: FLAG-tagged protein immunoprecipitated with magnetic FLAG-M2 beads (Sigma), 2 hours at 4 degrees Celsius, from transfected HEK-293T lysate; 0.5% CHAPS buffer (10 mM Tris/Cl pH 7.5, 150 mM NaCl, 0.5 mM EDTA); three washes; Western blot. On the technique in general: In western blotting, separated proteins are transferred to a membrane and probed.

For assay [3], the target named is GFP-WDR23 isoform I (human) (human) (UniProt Q8TEB1). The assay can be described thus: co-IP; GFP-tagged protein immunoprecipitated with GFP trap magnetic agarose beads (Chromotek) from transfected HEK-293T lysate; 0.5% CHAPS buffer (10 mM Tris/Cl pH 7.5, 150 mM NaCl, 0.5 mM EDTA); Western blot.

These are yes or no findings as the source states them, for the method shown. Binding seen in cells or lysates may run through a third protein. Some binding calls cover weakened binding; strength is not graded here. Sequences can lack the tags named with a protein.

B1: C. elegans GEN-1-3XFLAG (protein, UniProt Q22418 1-434)
chain: MTINGIWEWANHVVRKVPNETMRDKTLSIDGHIWLYESLKGCEAHHQQTPNSYLVTFFTRIQRLLELKIIPIVVFDNINASSSAHESKDQNEFVPRKRRSFGDSPFTNLVDHVYKTNALLTELGIKVIIAPGDGEAQCARLEDLGVTSGCITTDFDYFLFGGKNLYRFDFTAGTSSTACLHDIMHLSLGRMFMEKKVSRPHLISTAILLGCDYFQRGVQNIGIVSVFDILGEFGDDGNEEIDPHVILDRFASYVREEIPARSEDTQRKLRLRRKKYNFPVGFPNCDAVHNAITMYLRPPVSSEIPKIIPRAANFQQVAEIMMKECGWPATRTQKELALSIRRKVHLTTTVAQTRIPDFFAATKSKNFTPIVEPCESLEDYISANNTWMRKRKRSESPQILQHHAKRQVPDRKRSVKIRAFKPYPTDVIELGDSD
As to B1, in assay [1], the binding entry is “binds”.

B2: GFP-WDR-23A (C. elegans WDR-23 isoform A) (protein, UniProt P90794 1-571)
chain: MGNWITSTFLRFDLFQRHQPNRFLEYTRVQHSNQSPAYSVRTAAEIVAHQRMKPNHSNDSDTDFSSDDEGCPKMTPHEEQQMFEREQHIAFSGRCHIGDPESCTQLRNEINSRCGPRPSTSNNMEFILNRDLQKRGTSISNPRTVARVLNSHLPNQKRRVDRVATKSFCTQYIQNGTKIVVASQDEKIRFYQRNPDKSKYRSKYMKSDELRVDQCGWSILDTAISLNGDLIAYGTWKDAVFVGKLDFTERQNITWFPIDLNGEPGRDHCAVFCVKFSDSSEQIVCGTSQYSIHVFDVEQRRRIRTIVNAHEDDVNSVCFADLGSNLIYSAGDDGLVKVWDKRAWSDGDVEPVGVFAGHRDGVTHVDSRQDERYLLSNSKDQTIKVWDLRKFSNMSGVEATRACVQSQHWDYRWQPAPPGLCQPVAGDTSVMTLRGHSVLHTLVRANFSPESTGRRYIYTGCARGEVVVYDIMSGTVSRRLKGHTAVVRECDWHPTENEIVSSAWDGVTTVWTWDERQEGVIAPYDHPNISQFGDEDSCDELFQPVKKQCRRQRKTMSSRGHPCSSSSISQN
As to B2, the binding result in assay [2] is given as “binds”.

B3: Human 3XFLAG:GEN1 (protein, UniProt Q17RS7 1-908)
chain: MGVNDLWQILEPVKQHIPLRNLGGKTIAVDLSLWVCEAQTVKKMMGSVMKPHLRNLFFRISYLTQMDVKLVFVMEGEPPKLKADVISKRNQSRYGSSGKSWSQKTGRSHFKSVLRECLHMLECLGIPWVQAAGEAEAMCAYLNAGGHVDGCLTNDGDTFLYGAQTVYRNFTMNTKDPHVDCYTMSSIKSKLGLDRDALVGLAILLGCDYLPKGVPGVGKEQALKLIQILKGQSLLQRFNRWNETSCNSSPQLLVTKKLAHCSVCSHPGSPKDHERNGCRLCKSDKYCEPHDYEYCCPCEWHRTEHDRQLSEVENNIKKKACCCEGFPFHEVIQEFLLNKDKLVKVIRYQRPDLLLFQRFTLEKMEWPNHYACEKLLVLLTHYDMIERKLGSRNSNQLQPIRIVKTRIRNGVHCFEIEWEKPEHYAMEDKQHGEFALLTIEEESLFEAAYPEIVAVYQKQKLEIKGKKQKRIKPKENNLPEPDEVMSFQSHMTLKPTCEIFHKQNSKLNSGISPDPTLPQESISASLNSLLLPKNTPCLNAQEQFMSSLRPLAIQQIKAVSKSLISESSQPNTSSHNISVIADLHLSTIDWEGTSFSNSPAIQRNTFSHDLKSEVESELSAIPDGFENIPEQLSCESERYTANIKKVLDEDSDGISPEEHLLSGITDLCLQDLPLKERIFTKLSYPQDNLQPDVNLKTLSILSVKESCIANSGSDCTSHLSKDLPGIPLQNESRDSKILKGDQLLQEDYKVNTSVPYSVSNTVVKTCNVRPPNTALDHSRKVDMQTTRKILMKKSVCLDRHSSDEQSAPVFGKAKYTTQRMKHSSQKHNSSHFKESGHNKLSSPKIHIKETEQCVRSYETAENEESCFPDSTKSSLSSLQCHKKENNSGTCLDSPLPLRQRLKLRFQST
Regarding B3, the binding result in assay [3] is on record as “binds”.
